These results are taken from the supplement of paper PMC3682954.

Structures are written as SMILES. “And” between values parts separate entries of the source, which are not always exact repeats. Identical values can stand only once. Counter-ions that a name gives are not always drawn. ± gives the standard deviation of the averaged measurements. Some of the results follow. Single values are uncertain, as repeats are few or missing.

This assay concerns RAW 264.7. As to the kind of experiment: cell viability (MTT) relative to vehicle control; higher = more viable cells. The note with it: stimulus: HMGB1 5 ug/ml, 18 h.
Where [1] appears, read: compound concentration: 1 ug/ml.

As usually defined, the cell viability is a read-out of living cells in per cent, often relative to untreated cells. As for `S=C(S)N1CCCC1` [Ammonium pyrrolidinedithiocarbamate], the cell viability (compound concentration: 3 uM) amounted to 109%.
As to `CC(=O)CC(c1ccccc1)c1c(O)c2ccccc2oc1=O` (stereo not drawn), the cell viability (compound concentration: 3 uM) was 102 ± 3%.
Regarding `CC(=O)CC(c1ccccc1)c1c(O)c2ccccc2oc1=O` (stereo not drawn) [Warfarin], the cell viability (compound concentration: 3 uM) was 105%.
In the case of `NS(=O)(=O)c1cc2c(cc1Cl)NC(C1CC3C=CC1C3)NS2(=O)=O` (stereo not drawn), the cell viability (compound concentration: 3 uM) came out at 99.3%.
The same measure, in the same setting: the figure for `NS(=O)(=O)c1cc2c(cc1Cl)NC(C1CC3C=CC1C3)NS2(=O)=O` (stereo not drawn) [Cyclothiazide] is 115%; for `O=C1NS(=O)(=O)c2ccccc21` it is 105%; for `NC(N)=NC(=O)c1nc(Cl)c(N)nc1N` it is 95.3%.
On the same count and under the same terms, the figure for `O=c1oc2c(O)c(O)cc3c(=O)oc4c(O)c(O)cc1c4c23` is 109 ± 6.9%.
Turning to `O=c1oc2c(O)c(O)cc3c(=O)oc4c(O)c(O)cc1c4c23` [Ellagic acid hydrate], the cell viability under setting [1] came out at 95.4%.
As to `CO[C@@H]1[C@@H](O[C@@H]2O[C@H](C)[C@@H](O[C@H]3C[C@@](C)(O)[C@@H](OC(=O)CC(C)C)[C@H](C)O3)[C@H](N(C)C)[C@H]2O)[C@@H](CC=O)C[C@@H](C)[C@@H](O)/C=C/C=C/C[C@@H](C)OC(=O)C[C@H]1OC(C)=O` [Josamycin], the cell viability amounted to 106% under setting [1] and 111% (compound concentration: 3 uM).
In the case of `Cc1ccc2oc(=O)c(-c3ccc(Cl)cc3)c(C)c2c1` [3(4'-Chlorophenyl)-4,6-dimethylcoumarin], the cell viability under setting [1] came out at 107%.
With `CSC(=N)NCCC[C@H](N)C(=O)O` [S-Methyl-L-thiocitrulline acetate], the cell viability (compound concentration: 3 uM) was 104%.
On the same count and under the same terms, with `O=C(O)[C@@H]1C[C@H](C(=O)O)N1` [cis-Azetidine-2,4-dicarboxylic acid] the figure was 113%.
The same measure, in the same setting: the figure for `CC(=O)OCC(=O)[C@@]12OC(C)(C)O[C@@H]1C[C@H]1[C@@H]3C[C@H](F)C4=CC(=O)C=C[C@]4(C)[C@@]3(F)[C@@H](O)C[C@@]12C` [Fluocinonide] is 126%; for `CC(=O)OCC(=O)[C@@]12OC(C)(C)O[C@@H]1C[C@H]1[C@@H]3C[C@H](F)C4=CC(=O)C=C[C@]4(C)[C@@]3(F)[C@@H](O)C[C@@]12C` it is 115%; for `c1ccc2c(CC3=NCCN3)cccc2c1` it is 107%.
On to `c1ccc2c(CC3=NCCN3)cccc2c1` [Naphazoline hydrochloride], for which the cell viability (compound concentration: 3 uM) worked out at 99.3 ± 18%.
The same measure, in the same setting: with `c1ccc2c(CC3=NCCN3)cccc2c1` [Naphazoline] the figure was 101%; with `CCN(CC)CC(=O)Nc1c(C)cccc1C` [Lidocaïne hydrochloride], 90.7%.
The same measure, in the same setting: the figure for `CCN(CC)CC(=O)Nc1c(C)cccc1C` [Lidocaine hydrochloride] is 102%.
Still for that read-out and setting: with `CCN(CC)CC(=O)Nc1c(C)cccc1C` the figure was 97.6% and 99.6%.
On to `CCN(CC)CC(=O)Nc1c(C)cccc1C` [Lidocaine], for which the cell viability (compound concentration: 3 uM) is 111%.
As for `C=C1CC[C@@H]2[C@](C)(CO)[C@H](O)CC[C@@]2(C)[C@@H]1C/C=C1/C(=O)OC[C@H]1O` [Andrographolide], the cell viability under setting [1] is 87.7%.
Take `CC(=O)NS(=O)(=O)c1ccc(N)cc1` [Sulfacetamide sodic hydrate]: the cell viability (compound concentration: 3 uM) amounted to 103%.
On the same count and under the same terms, with `CC(=O)NS(=O)(=O)c1ccc(N)cc1` the figure was 100%; with `Cc1cn([C@H]2C=C[C@@H](CO)O2)c(=O)[nH]c1=O` [Stavudine], 89.6%.
Still for that read-out and setting: with `Cc1cn([C@H]2C=C[C@@H](CO)O2)c(=O)[nH]c1=O` the figure was 97.2%.
For the molecule `CC(=O)OC1CCC2(C)C(CCC3(C)C2C(=O)C=C2C4CC(C)(C(=O)N5CC6CC(C5)c5cccc(=O)n5C6)CCC4(C)CCC23C)C1(C)C` (stereo not drawn), the cell viability under setting [1] amounted to 106%.
`C=CC1=C(C(=O)O)N2C(=O)[C@@H](NC(=O)/C(=N\O)c3csc(N)n3)[C@H]2SC1`: the cell viability (compound concentration: 3 uM) turned out to be 104.3 ± 1%.
Same read-out and setting: the figure for `C=CC1=C(C(=O)O)N2C(=O)[C@@H](NC(=O)/C(=N\O)c3csc(N)n3)[C@H]2SC1` [Cefdinir] is 110%; for `Nc1ncnc2c1nc(Br)n2C1OC2COP(=O)(O)O[C@@H]2C1O` (stereo partly drawn) [8-Bromo-cAMP sodium] it is 98.6%.
For the molecule `OCc1ccccc1O[C@@H]1O[C@H](CO)[C@@H](O)[C@H](O)[C@H]1O`, the cell viability (compound concentration: 3 uM) worked out at 101%.
As for `OCc1ccccc1O[C@@H]1O[C@H](CO)[C@@H](O)[C@H](O)[C@H]1O` [D(-)-Salicin], under setting [1], the cell viability came out at 101%.
For `Ic1ccc(N2CCN(Cc3c[nH]c4ncccc34)CC2)cc1` [L-750,667 trihydrochloride], the cell viability (compound concentration: 3 uM) came out at 112%.
The same measure, in the same setting: the figure for `COc1cccc2c1C(=O)c1c(O)c3c(c(O)c1C2=O)C[C@@](O)(C(C)=O)C[C@@H]3O[C@H]1C[C@H](N)[C@H](O)[C@H](C)O1` [Daunorubicin hydrochloride] is 2.21%; for `COc1cccc2c1C(=O)c1c(O)c3c(c(O)c1C2=O)C[C@@](O)(C(C)=O)C[C@@H]3O[C@H]1C[C@H](N)[C@H](O)[C@H](C)O1` it is 2.54 ± 1.4%.
On the same count and under the same terms, with `COc1cccc2c1C(=O)c1c(O)c3c(c(O)c1C2=O)C[C@@](O)(C(C)=O)C[C@@H]3O[C@H]1C[C@H](N)[C@H](O)[C@H](C)O1` [Daunorubicin] the figure was 3.09%.
On the same count and under the same terms, the figure for `O=C(Nc1cccc(C(=O)Nc2ccc(S(=O)(=O)O)c3cc(S(=O)(=O)O)cc(S(=O)(=O)O)c23)c1)Nc1cccc(C(=O)Nc2ccc(S(=O)(=O)O)c3cc(S(=O)(=O)O)cc(S(=O)(=O)O)c23)c1` is 111%.
As to `Nc1cc(Cl)c(NC2=NCCN2)c(Cl)c1` [p-Aminoclonidine hydrochloride], under “compound concentration: 3 uM”, the cell viability came out at 104%.
Same read-out and setting: with `CCN(CC)CCNC(C(=O)OCCC(C)C)c1ccccc1` (stereo not drawn) the figure was 109%; with `C[C@@H]1C[C@H]2[C@@H]3CCC4=CC(=O)C=C[C@]4(C)[C@@]3(F)[C@@H](O)C[C@]2(C)[C@@]1(O)C(=O)COP(=O)(O)O`, 108%; with `CC(=O)OCC(=O)[C@@]1(O)CCC2C3CCC4=CC(=O)C=C[C@]4(C)[C@@]3(F)[C@@H](O)C[C@@]21C` (stereo partly drawn), 123%.
Still for that read-out and setting: the figure for `O=c1c(O[C@@H]2O[C@H](CO)[C@H](O)[C@H](O)[C@H]2O)c(-c2ccc(O)c(O)c2)oc2cc(O)cc(O)c12` is 98%; for `O=c1[nH]c2ccccc2n1CCCN1CCN(C(c2ccccc2)c2ccccc2)CC1` [Oxatomide] it is 103%; for `Nc1nc(Cl)nc2c1ncn2[C@@H]1O[C@H](CO)[C@@H](O)[C@H]1O` [2-Chloroadenosine] it is 97.7%.
Still for that read-out and setting: the figure for `Nc1nc(Cl)nc2c1ncn2[C@@H]1O[C@H](CO)[C@@H](O)[C@H]1O` is 94.7%; for `Cc1c(-c2cnccn2)ssc1=S` [Oltipraz] it is 113%; for `NO` [Hydroxylamine hydrochloride] it is 102%.
As to `C(=C\c1ccccc1)/CN1CCN(C(c2ccccc2)c2ccccc2)CC1`, the cell viability (compound concentration: 3 uM) amounted to 94.3%.
On the same count and under the same terms, the figure for `CN1CCN(C(c2ccccc2)c2ccccc2)CC1` is 97.7%; for `CN1CCN(C(c2ccccc2)c2ccccc2)CC1` [Cyclizine hydrochloride] it is 97.8%.
Regarding `C[C@]12CC[C@@H]3c4ccc(OC(=O)c5ccccc5)cc4CC[C@H]3[C@@H]1CC[C@@H]2O` [estradiol benzoate], the cell viability under setting [1] came to 104%.
For the molecule `C[C@]12CC[C@@H]3c4ccc(OC(=O)c5ccccc5)cc4CC[C@H]3[C@@H]1CC[C@@H]2O`, for the setting “compound concentration: 3 uM”, the cell viability amounted to 112%.
Still for that read-out and setting: with `C[N+](C)(C)CC(=O)O` the figure was 107%.
The same measure, in the same setting: with `C[N+](C)(C)CC(=O)O` [Betaine hydrochloride] the figure was 113%; with `O=C(O)c1ccccc1C(=O)Nc1ccc(S(=O)(=O)Nc2nccs2)cc1`, 98.5%.
Still for that read-out and setting: the figure for `O=C(O)c1ccccc1C(=O)Nc1ccc(S(=O)(=O)Nc2nccs2)cc1` [Phthalylsulfathiazole] is 97.9%; for `OCCN(CCO)c1nc(N2CCCCC2)c2nc(N(CCO)CCO)nc(N3CCCCC3)c2n1` [Dipyridamole] it is 99.5 ± 5.2%; for `OCCN(CCO)c1nc(N2CCCCC2)c2nc(N(CCO)CCO)nc(N3CCCCC3)c2n1` it is 100%.
As for `CC[C@H](CO)Nc1nc(NCc2ccccc2)c2ncn(C(C)C)c2n1` [Roscovitine], the cell viability (compound concentration: 3 uM) turned out to be 107%.
The same measure, in the same setting: the figure for `CC1CC(OC(=O)c2ccccc2O)CC(C)(C)C1` (stereo not drawn) [Homosalate] is 100%; for `CC1CC(OC(=O)c2ccccc2O)CC(C)(C)C1` (stereo not drawn) it is 105%.
Still for that read-out and setting: with `C[C@@H](CN1CCC(Cc2ccccc2)CC1)[C@@H](O)c1ccc(O)cc1` [Ro 25-6981 hydrochloride] the figure was 125%; with `COC(=O)C1=C(C#N)NC(C)=C(C(=O)OC(C)C)C1c1cccc([N+](=O)[O-])c1` (stereo not drawn) [Nilvadipine], 106%; with `N#Cc1cc2nc(O)c(O)nc2cc1[N+](=O)[O-]` [CNQX disodium], 106%.
On the same count and under the same terms, with `COC(=O)[C@H](NC(=O)c1cc(-c2ccccc2)nc2ccccc12)c1ccccc1` the figure was 108%; with `NC[C@@H]1O[C@@H](O[C@H]2[C@H](O)[C@@H](O[C@H]3O[C@H](CO)[C@@H](O)[C@H](N)[C@H]3O)[C@H](N)C[C@@H]2N)[C@@H](O)[C@H](O)[C@H]1O`, 102%; with `NC[C@@H]1O[C@@H](O[C@H]2[C@H](O)[C@@H](O[C@H]3O[C@H](CO)[C@@H](O)[C@H](N)[C@H]3O)[C@H](N)C[C@@H]2N)[C@@H](O)[C@H](O)[C@H]1O` [Kanamycin A sulfate], 112%.
Consider `N[C@@H](CS(=O)O)C(=O)O` [L-Cysteinesulfinic Acid], for which, for the setting “compound concentration: 3 uM”, the cell viability worked out at 107%.
Regarding `O=C(CCCN1CCN(c2ccccn2)CC1)c1ccc(F)cc1` [Azaperone], the cell viability (compound concentration: 3 uM) came out at 101 ± 7.9%.
On to `O=C(CCCN1CCN(c2ccccn2)CC1)c1ccc(F)cc1`, for which the cell viability (compound concentration: 3 uM) was 106%.
Same read-out and setting: with `Cc1cc(NC(=O)Nc2ccc3c(ccn3C)c2)sn1` the figure was 107%.
`O=C(Nc1ccncc1)c1cc([N+](=O)[O-])ccc1Cl`: the cell viability (compound concentration: 3 uM) worked out at 106%.
The same measure, in the same setting: the figure for `C#C[C@]1(O)CC[C@H]2[C@@H]3CCC4=CCCC[C@@H]4[C@H]3CC[C@@]21C` [Lynestrenol] is 104%; for `C[C@@H](O)[C@@H]1NC(=O)[C@H](CCCCN)NC(=O)[C@@H](Cc2c[nH]c3ccccc23)NC(=O)[C@H](Cc2ccccc2)NC(=O)[C@@H](NC(=O)[C@H](N)Cc2ccccc2)CSSC[C@@H](C(=O)N[C@H](CO)[C@@H](C)O)NC1=O` [Octreotide] it is 105%.
Same read-out and setting: the figure for `C[C@H](CCC(=O)O)[C@H]1CC[C@H]2[C@@H]3[C@@H](O)C[C@@H]4C[C@H](O)CC[C@]4(C)[C@H]3CC[C@]12C` [Urosiol] is 86.7%.
Same read-out and setting: with `C[C@H](CCC(=O)O)[C@H]1CC[C@H]2[C@@H]3[C@@H](O)C[C@@H]4C[C@H](O)CC[C@]4(C)[C@H]3CC[C@]12C` the figure was 99%.
